Primary screen of a compound library

Amino acid sequences for entries named in this document (tags omitted).
UniProt E9BF75, entry or part of it: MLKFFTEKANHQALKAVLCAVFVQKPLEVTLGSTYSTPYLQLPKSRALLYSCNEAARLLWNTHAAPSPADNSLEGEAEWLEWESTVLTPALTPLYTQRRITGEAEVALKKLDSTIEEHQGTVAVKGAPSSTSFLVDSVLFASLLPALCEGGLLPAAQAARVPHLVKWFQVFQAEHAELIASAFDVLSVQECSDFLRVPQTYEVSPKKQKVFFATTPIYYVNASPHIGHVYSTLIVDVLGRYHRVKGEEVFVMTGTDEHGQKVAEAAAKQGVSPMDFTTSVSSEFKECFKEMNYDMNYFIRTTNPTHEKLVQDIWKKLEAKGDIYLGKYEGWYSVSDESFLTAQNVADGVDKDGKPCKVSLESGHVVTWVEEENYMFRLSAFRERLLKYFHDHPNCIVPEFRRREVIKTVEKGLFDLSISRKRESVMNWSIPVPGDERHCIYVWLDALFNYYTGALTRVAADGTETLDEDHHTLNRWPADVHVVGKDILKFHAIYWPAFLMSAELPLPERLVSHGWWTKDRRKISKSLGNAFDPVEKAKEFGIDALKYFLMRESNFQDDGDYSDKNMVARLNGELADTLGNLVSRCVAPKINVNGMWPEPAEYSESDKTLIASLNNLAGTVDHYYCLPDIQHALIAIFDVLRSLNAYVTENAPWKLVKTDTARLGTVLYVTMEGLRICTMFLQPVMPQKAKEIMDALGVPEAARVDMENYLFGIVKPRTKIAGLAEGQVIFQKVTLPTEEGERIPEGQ

Source: ChEMBL document CHEMBL3988442, “University of Dundee, Small-Polar-MMV Screening Library” (2021).

Results are percentages, as filed.
The controls that fix the scale are not given in the record; negative values are as filed.
The compounds are a random part of those screened.

Mtb heat-shock: 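Assay on Mycobacterium tuberculosis, filed only as a heat shock assay from Cornell; the read-out is not stated. The concentration is filed as 10 mM, unlikely as a test dose, so the dose is not known. The record gives no direction; compounds that gave an IC50 in retests scored well above the rest, so higher reads as stronger inhibition. Size under these conditions: about 69,000 compounds, about 930 of them at 50% or above in at least one test.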
LdMetRS: 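Methionyl-tRNA synthetase (putative), Leishmania donovani (UniProt E9BF75). Primary screen of methionyl-tRNA synthetase; the read-out is not stated. The test concentration is not given. Values are per cent inhibition. About 68,000 compounds were tested under these conditions; 0.035% (about 24) showed 50% or more at least once.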
Mtb growth Cornell: 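Whole-cell assay for inhibitors of Mycobacterium tuberculosis growth, labelled Cornell in the record; the read-out is not stated. The concentration is filed as 10 mM, unlikely as a test dose, so the dose is not known. The record gives no direction; compounds strong in two other growth screens of this library score well above the rest, so higher reads as stronger inhibition. Size under these conditions: about 53,000 compounds, about 900 of them at 50% or above in at least one test.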

{"smiles": "[H][C@@]12CN(c3nccnc3C)C[C@]1(C(=O)O)CN(C1CCOCC1)C2", "Mtb heat-shock": -1.48, "Mtb growth Cornell": -12.3}
{"smiles": "CS(=O)(=O)c1ccc(CNCC2CCN(CCO)CC2)cc1", "Mtb heat-shock": -5.499, "LdMetRS": 0.4926, "Mtb growth Cornell": -14.44}
{"smiles": "Fc1ccccc1Cc1noc(CN2CCC(N3CCSCC3)CC2)n1", "Mtb heat-shock": 5.837, "LdMetRS": 3.97, "Mtb growth Cornell": 16.45}
{"smiles": "O=C(CCCN1CCCCC1)N[C@H](C(=O)O)c1cccc(F)c1F", "Mtb heat-shock": -27.92, "LdMetRS": 12.61}
{"smiles": "CNC(=O)[C@H]1CCS(=O)(=O)[C@@H]2CN(Cc3ccc(OC)cc3)C[C@H]12", "LdMetRS": 11.43}
{"smiles": "Cc1nc[nH]c1-c1nccn1CCN(C)S(C)(=O)=O", "Mtb heat-shock": 9.76, "LdMetRS": 11.8, "Mtb growth Cornell": -26.23}
{"smiles": "c1cc(-c2nn3c(CN4CCOCC4)nnc3s2)ccn1", "Mtb heat-shock": 5.571, "LdMetRS": 2.764}
{"smiles": "CC(C)=CCN1CCN(C(=O)C2CCS(=O)(=O)C2)CC1", "stereo": "stereo unspecified", "Mtb heat-shock": -1.805, "LdMetRS": 6.977, "Mtb growth Cornell": 4.312}
{"smiles": "CC(CCc1ccccc1F)C(=O)NS(=O)(=O)N(C)C(C)C", "stereo": "stereo unspecified", "Mtb heat-shock": -1.729, "LdMetRS": 5.707, "Mtb growth Cornell": -4.36}
{"smiles": "O=C(O)c1csc(S(=O)(=O)N2CCN(Cc3ccc(Cl)cc3)CC2)c1", "Mtb heat-shock": -11.07, "LdMetRS": 5.645, "Mtb growth Cornell": -6.503}
{"smiles": "O=C1CC2(CCN(C(=O)c3csc(-c4ccccc4)n3)C2)C(=O)N1", "stereo": "stereo unspecified", "Mtb heat-shock": 8.153, "LdMetRS": 4.7, "Mtb growth Cornell": -14.89}
{"smiles": "N#CCCN(CC1CCCO1)C(=O)c1ccsc1", "stereo": "stereo unspecified", "Mtb heat-shock": 7.31, "LdMetRS": 11.39, "Mtb growth Cornell": 7.216}
{"smiles": "[H][C@@]12CCN(c3ncccn3)C[C@@]1([H])[C@H](C(=O)NC(C)C)CCO2", "Mtb heat-shock": 27.99, "Mtb growth Cornell": 11.24}
{"smiles": "CN1CC(=O)N(c2ccsc2)CC12CCN(C(=O)N1CCCC1)C2", "stereo": "stereo unspecified", "LdMetRS": 6.667}
{"smiles": "Cc1ccc(CCN2CCCC23Cc2ccccc2CNC3=O)cc1", "stereo": "stereo unspecified", "Mtb heat-shock": -4.633, "LdMetRS": 26.29}
{"smiles": "CCc1ncncc1C(=O)NCCNS(=O)(=O)c1ccccc1", "Mtb heat-shock": -1.406, "LdMetRS": -0.9926, "Mtb growth Cornell": -3.804}
{"smiles": "COc1cc(F)ccc1C(C(=O)O)N(C)CCN1CCCC1", "stereo": "stereo unspecified", "Mtb heat-shock": -2.124, "LdMetRS": 11.54, "Mtb growth Cornell": 8.743}
{"smiles": "CC(C)=CCC1(C(=O)O)CCCN(c2ccnc(C)n2)C1", "stereo": "stereo unspecified", "Mtb heat-shock": -9.343, "LdMetRS": 14.93, "Mtb growth Cornell": -1.75}

The last 2 entries again:

| SMILES | Mtb heat-shock | LdMetRS | Mtb growth Cornell |
|---|---|---|---|
| `COc1cc(F)ccc1C(C(=O)O)N(C)CCN1CCCC1` (stereo unspecified) | -2.124% | 11.54% | 8.743% |
| `CC(C)=CCC1(C(=O)O)CCCN(c2ccnc(C)n2)C1` (stereo unspecified) | -9.343% | 14.93% | -1.75% |